Binding data for two molecules are collected here from article PMC6262856.

Amino acid sequences for entries named in this document (tags omitted).
UniProt P60842: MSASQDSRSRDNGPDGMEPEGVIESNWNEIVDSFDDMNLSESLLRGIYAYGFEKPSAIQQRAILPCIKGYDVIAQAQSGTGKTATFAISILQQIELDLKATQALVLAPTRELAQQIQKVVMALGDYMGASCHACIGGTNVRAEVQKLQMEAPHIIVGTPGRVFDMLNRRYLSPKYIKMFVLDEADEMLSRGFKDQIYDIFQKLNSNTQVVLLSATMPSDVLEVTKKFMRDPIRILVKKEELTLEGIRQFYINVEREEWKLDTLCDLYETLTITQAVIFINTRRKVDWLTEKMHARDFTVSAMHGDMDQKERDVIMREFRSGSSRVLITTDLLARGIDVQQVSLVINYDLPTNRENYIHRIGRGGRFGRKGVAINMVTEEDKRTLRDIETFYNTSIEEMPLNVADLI

Results are given in words; binding and its absence hold for the method and conditions named. In cells and extracts the contact can be indirect. Some binding calls cover weakened binding; strength is not graded here. For some assays here: Tags and fused reporters may be left off the sequences shown.

The target of assay [1] is FLAG-eIF4A1 (human), P60842. Put plainly: co-IP; 293T cells lysed in NP-40 lysis buffer; pre-cleared lysates treated with EtOH or 15d-PGJ2 at 30°C for 1 h; anti-FLAG antibody on protein G agarose, 4°C 1 h; western blot of the precipitate. Particulars: remark: other sources report otherwise. Background: In western blotting, separated proteins are transferred to a membrane and probed.

Another assay addresses FLAG-eIF4A1 (human) (UniProt P60842). Described as above.

B1: GFP-PAIP1, Q9H074 1-479 (protein)
chain: MSDGFDRAPGAGRGRSRGLGRGGGGPEGGGFPNGAGPAERARHQPPQPKAPGFLQPPPLRQPRTTPPPGAQCEVPASPQRPSRPGALPEQTRPLRAPPSSQDKIPQQNSESAMAKPQVVVAPVLMSKLSVNAPEFYPSGYSSSYTESYEDGCEDYPTLSEYVQDFLNHLTEQPGSFETEIEQFAETLNGCVTTDDALQELVELIYQQATSIPNFSYMGARLCNYLSHHLTISPQSGNFRQLLLQRCRTEYEVKDQAAKGDEVTRKRFHAFVLFLGELYLNLEIKGTNGQVTRADILQVGLRELLNALFSNPMDDNLICAVKLLKLTGSVLEDAWKEKGKMDMEEIIQRIENVVLDANCSRDVKQMLLKLVELRSSNWGRVHATSTYREATPENDPNYFMNEPTFYTSDGVPFTAADPDYQEKYQELLEREDFFPDYEENGTDLSGAGDPYLDDIDDEMDPEIEEAYEKFCLESERKRKQ
For the molecule B1, the binding result in assay [1] is listed as “binds”.

B2: DAP5 (protein, UniProt P78344 1-907)
chain: MESAIAEGGASRFSASSGGGGSRGAPQHYPKTAGNSEFLGKTPGQNAQKWIPARSTRRDDNSAANNSANEKERHDAIFRKVRGILNKLTPEKFDKLCLELLNVGVESKLILKGVILLIVDKALEEPKYSSLYAQLCLRLAEDAPNFDGPAAEGQPGQKQSTTFRRLLISKLQDEFENRTRNVDVYDKRENPLLPEEEEQRAIAKIKMLGNIKFIGELGKLDLIHESILHKCIKTLLEKKKRVQLKDMGEDLECLCQIMRTVGPRLDHERAKSLMDQYFARMCSLMLSKELPARIRFLLQDTVELREHHWVPRKAFLDNGPKTINQIRQDAVKDLGVFIPAPMAQGMRSDFFLEGPFMPPRMKMDRDPLGGLADMFGQMPGSGIGTGPGVIQDRFSPTMGRHRSNQLFNGHGGHIMPPTQSQFGEMGGKFMKSQGLSQLYHNQSQGLLSQLQGQSKDMPPRFSKKGQLNADEISLRPAQSFLMNKNQVPKLQPQITMIPPSAQPPRTQTPPLGQTPQLGLKTNPPLIQEKPAKTSKKPPPSKEELLKLTETVVTEYLNSGNANEAVNGVREMRAPKHFLPEMLSKVIILSLDRSDEDKEKASSLISLLKQEGIATSDNFMQAFLNVLDQCPKLEVDIPLVKSYLAQFAARAIISELVSISELAQPLESGTHFPLFLLCLQQLAKLQDREWLTELFQQSKVNMQKMLPEIDQNKDRMLEILEGKGLSFLFPLLKLEKELLKQIKLDPSPQTIYKWIKDNISPKLHVDKGFVNILMTSFLQYISSEVNPPSDETDSSSAPSKEQLEQEKQLLLSFKPVMQKFLHDHVDLQVSALYALQVHCYNSNFPKGMLLRFFVHFYDMEIIEEEAFLAWKEDITQEFPGKGKALFQVNQWLTWLETAEEEESEEEAD
Take B2: the binding result in the assay with FLAG-eIF4A1 (human) is given as “binds”.
